PubChem BioAssay AID1259279 | Sanger Institute, 2017

Aim: 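Kinases that colorectal cancer cells need to survive, alone or with drugs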 (primary screen)
System: LS180 human colorectal cancer cells
Knock-down reagent: siRNA pool against human genes
Conditions: anchor drug BYL719 at 1 µM, cetuximab at 5 µg/ml or trametinib at 10 nM, or DMSO vehicle only
Measurement: 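Cell viability versus a non-targeting pool, as a fraction and as a robust z-score from replicate means, plus a synergy score for each of three drugs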
Reading the numbers: viability z-score, no drug: higher = more viable cells after knock-down; viability, no drug: higher = more viable cells; synergy score with BYL719 and synergy score with cetuximab and synergy score with trametinib: higher = stronger synthetic lethal synergy with drug
Rule for the call: 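Essential (active) calls need a no-drug viability z-score lower than -3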
Calls: active = essential (knock-down alone cuts viability); inactive = no change without drug
In all, the deposit lists 794 reagents; this is a random part of them. 11 of them (1.4%) count as active. 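Calls reflect knock-down alone in the vehicle arm, not drug synergy.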 Viability is capped at 1. The record does not give: the amount of reagent, the time to read-out.

| target gene | viability z-score, no drug | viability, no drug (fraction) | synergy score with BYL719 | synergy score with cetuximab | synergy score with trametinib | outcome |
| --- | --- | --- | --- | --- | --- | --- |
| UHMK1 | -0.653 | 0.835 | -0.125 | -0.181 | -0.0765 | inactive |
| SKAP1 | 0.39 | 0.949 | -0.127 | -0.101 | -0.0325 | inactive |
| MAP3K7 | 0.86 | 1 | -0.031 | 0.0327 | 0.0583 | inactive |
| IGF1R | 0.172 | 0.925 | -0.0494 | -0.14 | -0.0863 | inactive |
| STK3 | -0.867 | 0.812 | -0.178 | -0.255 | -0.108 | inactive |
| STK26 | 0.86 | 1 | 0.0347 | -0.0882 | 0.0551 | inactive |
| TSKS | 0.86 | 1 | -0.0862 | -0.15 | -0.0698 | inactive |
| MAP3K4 | 0.688 | 0.981 | -0.178 | -0.159 | -0.0922 | inactive |
| SRGAP3 | 0.86 | 1 | -0.15 | -0.0881 | -0.1 | inactive |
| PCBP1 | -0.574 | 0.844 | -0.158 | -0.132 | -0.153 | inactive |
| STK38 | 0.501 | 0.961 | -0.0397 | 0.0852 | 0.0039 | inactive |
| PANK2 | 0.14 | 0.922 | -0.0211 | -0.148 | 0.0272 | inactive |
| NF1 | 0.86 | 1 | -0.0974 | -0.0589 | -0.00112 | inactive |
| PRKY | -0.796 | 0.819 | -0.037 | 0.0411 | -0.159 | inactive |
| TSSK3 | 0.721 | 0.985 | 0.0148 | -0.0385 | -0.163 | inactive |
| CDC73 | -0.903 | 0.808 | -0.122 | 0.0019 | -0.0397 | inactive |
| CKMT2 | 0.86 | 1 | 0.0729 | -0.0815 | -0.048 | inactive |
| MKNK1 | 0.0357 | 0.91 | -0.273 | -0.238 | -0.0473 | inactive |
| PDPK1 | 0.86 | 1 | 0.0642 | -0.0533 | 0.135 | inactive |
| HIPK4 | 0.86 | 1 | -0.122 | -0.166 | -0.104 | inactive |
| PRKX | 0.698 | 0.982 | 0.0399 | -0.107 | -0.0399 | inactive |
| ADCK1 | 0.86 | 1 | -0.0623 | 0.0079 | -0.00609 | inactive |
| PIP4K2A | 0.86 | 1 | -0.199 | -0.166 | -0.146 | inactive |
| MAGI2 | 0.0902 | 0.916 | 0.0878 | -0.0117 | 0.0996 | inactive |
| NADK | 0.425 | 0.953 | 0.0579 | 0.0825 | -0.0107 | inactive |
| PI4K2B | 0.0957 | 0.917 | -0.211 | -0.16 | -0.0112 | inactive |
| DMPK | -1.13 | 0.783 | -0.143 | 0.0344 | -0.00111 | inactive |
| MAP3K8 | -0.555 | 0.846 | 0.00912 | -0.0398 | 0.00319 | inactive |
| CAMKK2 | 0.00751 | 0.907 | -0.102 | 0.0126 | 0.0561 | inactive |
| LMTK3 | -0.993 | 0.798 | -0.0395 | -0.0476 | 0.0998 | inactive |
| NEK7 | 0.501 | 0.961 | -0.231 | -0.116 | -0.236 | inactive |
| TRIM27 | -1.23 | 0.772 | -0.149 | -0.253 | -0.163 | inactive |
| IDH2 | 0.568 | 0.968 | -0.0703 | -0.192 | -0.0814 | inactive |
| PTK2 | -0.845 | 0.814 | -0.0827 | 0.0424 | -0.0549 | inactive |

Targets listed so far whose gene name starts with N or n (3):
| target gene | viability z-score, no drug | viability, no drug (fraction) | synergy score with BYL719 | synergy score with cetuximab | synergy score with trametinib | outcome |
| --- | --- | --- | --- | --- | --- | --- |
| NF1 | 0.86 | 1 | -0.0974 | -0.0589 | -0.00112 | inactive |
| NADK | 0.425 | 0.953 | 0.0579 | 0.0825 | -0.0107 | inactive |
| NEK7 | 0.501 | 0.961 | -0.231 | -0.116 | -0.236 | inactive |
